# Test results as given in patent US10927354B2, “D-type amino acid dehydrogenase” (Kureha Corporation, priority 2017, dated 2021).
# The name of at least one read-out is uncertain.
# Tested on: D-type amino acid dehydrogenase derived from N. massiliense
# Assay: Kinetic analysis of D-type amino acid dehydrogenase
# Assay type: biochemical, Numidum massiliense
# Details: meso-diaminopimelic acid as substrate, NADP^+ or NAD^+ as coenzyme; values for meso-diaminopimelic acid determined using NADP^+
# Method: The absorbance was measured by an ultraviolet-visible spectrophotometer UV-1800 (available from SHIMADZU). The specific activity of the enzyme was calculated from the concentration of the enzyme used and enzyme dilution rate using the obtained absorbance change and the following equation. […] A turnover number (kcat) as a reaction rate parameter, a Michaelis constant (Km) value, and catalytic efficiency (kcat/Km) were determined with Igor Pro ver. 3.14 (available from WaveMetrics) based on Michaelis-Menten equation after the initial velocities were plotted against different substrates and coenzyme concentrations.
compound,measurement,value
NC(=O)c1ccc[n+]([C@@H]2O[C@H](COP(=O)([O-])OP(=O)(O)OC[C@H]3O[C@@H](n4cnc5c(N)ncnc54)[C@H](O)[C@@H]3O)[C@@H](O)[C@H]2O)c1 [NAD^1],kcat/Km,10000 M⁻¹ s⁻¹
